In all, about 230,000 compounds went through this assay and about 3,600 (1.6%) were called active. Listed are the inconclusive results; actives and inactives stand elsewhere. Calls come from the whole dose curve; as a rule, active = well fitted inhibition curve with a large enough effect (not every such curve was filed as active); inconclusive = small, poorly fitted or top-dose-only effect, or another doubt; inactive = no such curve, though single readings can be large or run the other way.
What follows are compounds tested against Lysine-specific demethylase 4E (Homo sapiens) (UniProt B2RXH2) (assay: qHTS Assay for Inhibitors of Human Jumonji Domain Containing 2E (JMJD2E)). Details: JMJD2E catalytic domain, FDH-coupled NADH fluorescence (FDH is formaldehyde dehydrogenase).
Note: nearly all actives have a fitted effect of over 50% in size.
Potency is the fitted concentration of half-maximal effect.

Protein sequences, listed by entry. Tags and fused reporters are not part of them. Residues count along the entry.
UniProt B2RXH2, 1-337 limits assumed: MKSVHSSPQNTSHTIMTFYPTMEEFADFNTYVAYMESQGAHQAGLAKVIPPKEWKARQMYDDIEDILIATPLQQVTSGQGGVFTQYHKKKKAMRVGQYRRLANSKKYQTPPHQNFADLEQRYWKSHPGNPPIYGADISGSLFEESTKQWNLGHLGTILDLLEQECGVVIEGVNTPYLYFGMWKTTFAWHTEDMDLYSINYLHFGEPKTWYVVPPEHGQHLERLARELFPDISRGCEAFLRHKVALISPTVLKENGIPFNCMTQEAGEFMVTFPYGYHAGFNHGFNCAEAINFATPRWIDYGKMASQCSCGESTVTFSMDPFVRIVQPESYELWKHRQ

| Structure (SMILES) | Potency |
| --- | --- |
| CCOP(C)(=S)SCC(=O)NC(C)C(=O)O (stereo not given) | inconclusive: 35.5 µM |
| CC1=NCCc2c1[nH]c1ccccc21.O=[N+]([O-])c1cc([N+](=O)[O-])c(O)c([N+](=O)[O-])c1 | inconclusive: 25.1 µM |
| Cc1cc(-c2cccc3ccccc23)c(C)cn1.O=[N+]([O-])c1cc([N+](=O)[O-])c(O)c([N+](=O)[O-])c1 | inconclusive: 39.8 µM |
| O=[N+]([O-])c1cc([N+](=O)[O-])c(Nc2ccccn2)c([N+](=O)[O-])c1 | inconclusive: 35.5 µM |
| Cc1nc2ccc3ccccc3c2o1.O=[N+]([O-])c1cc([N+](=O)[O-])c(O)c([N+](=O)[O-])c1 | inconclusive: 31.6 µM |

Reference: PubChem BioAssay AID2147 (National Center for Advancing Translational Sciences (NCATS), 2009)
